Some of the results follow. These are further read-outs of the screen, such as a control signal, another cell line or another target. No call is given for them. Compounds called inactive in the main read-out are mostly missing here. Potencies come from curve fits of mixed quality, noted in brackets.

A short description of this experiment: qHTS Assay to Find Inhibitors of Chronic Active B-Cell Receptor Signaling. To be noted: ABC-DLBCL IkBa-CBG/CBR reporter, luminescence ratio (green luciferase fused to IkBa over red control in TMD8 lymphoma cells), 4 h. The essentials:
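Compounds up to 46 uM were incubated four hours with TMD8 cells whose green CBG68 luciferase is fused to IkappaBalpha; red CBR luminescence normalised the signal, and concentration-effect curves were fitted to fusion, red and ratio data.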

[1] abbreviates: measured here: CBR red luminescence, cell number.

In general, AC50 refers to the concentration giving half of the maximal activity seen. On to `COc1ccc(CN(C)C(=O)c2ccc3ccccc3n2)cc1F`, for which the AC50 (measured here: IkBa-CBG green luminescence) was 28.2 µM [falling, single point]. `O=C(COc1ccccc1)Nc1nnc(-c2ccc(F)cc2)o1`: under setting [1], the AC50 was 35.5 µM [falling, partial curve, poor fit]. Still for that read-out and setting: the figure for `COc1ccc(NC(=O)CCC(=O)Nc2nnc(C3CCCCC3)s2)cc1` is 0.562 µM [rising, full curve, poor fit]; for `CC(C)Cc1cc(C(=O)NCc2ccco2)no1` it is 22.4 µM [falling, single point]; for `COc1ccc(-c2[nH]c(-c3cccc(OC)c3)nc2SCC(=O)NC2CCCC2)cc1` it is 18.4 µM [falling, single point].

Consider `Cc1ccc(C2=NC3(CCCC3)N=C2SCC(=O)Nc2ccc3c(c2)OCCO3)cc1`, for which, under setting [1], the AC50 was 29.1 µM [falling, single point]. Still for that read-out and setting: the figure for `COc1cc(C)nc(N2CCCC(C(=O)Nc3cccc(Cl)c3Cl)C2)n1` (stereo not drawn) is 13 µM [rising, partial curve, poor fit]; for `CCC(=O)N1c2ccccc2[C@@H](N(C(C)=O)c2ccccc2)C[C@H]1C` it is 6.51 µM [rising, full curve, poor fit]. On the same count and under the same terms, with `COC(=O)c1cccc(NC(=O)/C=C/c2cccc([N+](=O)[O-])c2)c1` the figure was 7.94 µM [falling, partial curve, poor fit]; with `O=C1/C(=C/c2ccc(F)cc2)SC(=S)N1CCCC(=O)N1CCCCC1CCO` (stereo not drawn), 11.2 µM [falling, partial curve]; with `Nc1cc(=O)[nH]c(SCC(=O)c2ccc(F)cc2)n1`, 35.5 µM [rising, single point].

`C=CCn1c(C)cc(C(=O)COC(=O)CCc2cc(OC)c(OC)c(OC)c2)c1C`: the AC50 under setting [1] was 10.3 µM [rising, partial curve]. Same read-out and setting: with `C[C@H](NC(=O)c1ccc(Br)cc1)C(=O)NCc1ccc(S(N)(=O)=O)cc1` the figure was 0.141 µM [falling, full curve, poor fit]; with `CC(=O)c1c(C)[nH]c(C(=O)Nc2nccs2)c1C`, 1.41 µM [falling, full curve, poor fit]; with `CC/C(Cc1ccccc1)=N\NC(=O)c1cc(C)oc1C`, 7.31 µM [falling, partial curve, poor fit].

With `CC(C)(C)NC(=O)Cn1nnc(-c2ccccc2Cl)n1`, the concentration at half-maximal activity (AC50) under setting [1] is 35.5 µM [falling, partial curve, poor fit].

As for `CC1CCCN(c2c([N+](=O)[O-])cc(C(=O)O)cc2[N+](=O)[O-])C1` (stereo not drawn), the half-maximal activity concentration (AC50) under setting [1] is 22.4 µM [falling, single point]. The same measure, in the same setting: the figure for `CC(=O)c1sc2nc(CSc3nnnn3-c3ccccc3)[nH]c(=O)c2c1C` is 10 µM [falling, partial curve, poor fit].
